Reference: PubChem BioAssay AID1645883 (National Center for Advancing Translational Sciences (NCATS), 2021)
Most of the hits are listed elsewhere, so they are rarer here than in the full data. Inconclusive results are not listed. Calls of active or inactive are those of the source. Calls come from the whole dose curve; as a rule, active = well fitted activation curve with a large enough effect; inconclusive = small, poorly fitted or top-dose-only effect; inactive = no such curve, though single readings can be large or run the other way.

Chains of the proteins cited; added tags and fusions are not shown. Lines headed by an entry give the natural chain unless they say otherwise; changes in a name come on top.
UniProt O95398: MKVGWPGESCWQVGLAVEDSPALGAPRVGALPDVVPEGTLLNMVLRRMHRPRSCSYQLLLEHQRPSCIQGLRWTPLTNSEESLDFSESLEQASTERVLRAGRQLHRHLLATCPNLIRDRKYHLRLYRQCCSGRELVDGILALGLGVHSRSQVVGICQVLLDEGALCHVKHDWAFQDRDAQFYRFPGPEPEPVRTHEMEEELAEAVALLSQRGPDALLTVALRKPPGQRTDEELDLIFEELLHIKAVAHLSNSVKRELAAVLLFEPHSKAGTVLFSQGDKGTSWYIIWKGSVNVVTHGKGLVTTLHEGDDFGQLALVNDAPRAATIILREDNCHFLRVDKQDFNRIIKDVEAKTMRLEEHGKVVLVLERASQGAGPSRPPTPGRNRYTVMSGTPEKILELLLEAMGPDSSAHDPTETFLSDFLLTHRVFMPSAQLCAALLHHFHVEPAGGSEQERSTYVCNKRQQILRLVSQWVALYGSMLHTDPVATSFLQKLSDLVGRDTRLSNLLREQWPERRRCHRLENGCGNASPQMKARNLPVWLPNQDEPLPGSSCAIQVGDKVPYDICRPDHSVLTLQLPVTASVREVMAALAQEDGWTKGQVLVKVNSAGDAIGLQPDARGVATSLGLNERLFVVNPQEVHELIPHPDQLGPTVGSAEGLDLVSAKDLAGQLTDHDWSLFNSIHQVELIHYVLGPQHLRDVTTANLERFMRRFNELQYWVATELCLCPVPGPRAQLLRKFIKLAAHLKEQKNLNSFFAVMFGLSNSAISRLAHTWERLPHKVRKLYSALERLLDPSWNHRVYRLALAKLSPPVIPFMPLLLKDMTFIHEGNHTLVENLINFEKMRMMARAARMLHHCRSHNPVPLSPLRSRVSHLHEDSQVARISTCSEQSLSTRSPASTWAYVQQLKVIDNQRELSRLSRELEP

Target: Rap guanine nucleotide exchange factor 3 (Homo sapiens) (UniProt O95398)
Test: Validation qHTS for agonist of cAMP-regulated guanine nucleotide exchange factor 3 (EPAC1); note: nearly all actives have a fitted effect of over 70% in size
Details: EPAC1 Rap1b BODIPY-GDP exchange, fluorescence; stronger effect = higher value; percent of cAMP control response
Description: Assay Provider (PI): Xiaodong Cheng Ph.D.
The University of Texas Medical Branch, […], TX
In multi-cellular eukaryotic organisms, the effects of cAMP are transduced by two ubiquitously-expressed intracellular cAMP receptors, the classic protein kinase A/cAMP-dependent protein kinase (PKA/cAPK) and the more recently discovered exchange protein directly activated by cAMP/cAMP-regulated guanine nucleotide exchange factor (EPAC/cAMP-GEF). Both PKA and EPAC are ubiquitously expressed in all tissues, and an increase in intracellular cAMP levels will lead to the activation of both PKA and EPAC. […]
This qHTS will be used to screen the Molecular Libraries Small Molecule Repository (MLSMR) as a concentration-titration series using the NCGC unique quantitative screening (qHTS) platform to find activators for EPAC1. […] Activators are identified by monitoring the change in fluorescence signal as the exchanged free BODIPY-GDP has a reduced fluorescence compared to Rap1-bound BODIPY-GDP. […]
Briefly, three uL of reagents (100 nM EPAC1, 250 nM RAP1B-BODIPY-GDP, 50 uM GDP) were dispensed into a 1536-well Greiner black solid-bottom medium binding assay plate. […] The assay plates were read at 5 minute intervals for 30 minutes in the ViewLux plate reader using 480nm excitation and 540nm emission filters. […]
% is set by controls: 0 for no effect and ±100 for the full control effect.

Structure (SMILES)	max response
CC(C)(C)c1ccc(O)cc1	inactive: -61.6%
